PubChem BioAssay AID743454 – Peter MacCallum Cancer Centre | 2014

Screen: 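Genes whose loss kills vorinostat-resistant colon cancer cells under vorinostat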 (primary screen)
Cell system: human HCT116-VR colon cancer cells, selected for vorinostat resistance
Reagents: siRNA pool against human genes, 40 nM siRNA pool
Duration: vorinostat for 24 h, read-out about 72 h after transfection
Conditions: vorinostat at 2.5 µM final
Measurement: 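Two measures, CellTiter-Fluor viability and luminescent caspase 3/7 activity, each as fold change against same-plate mock wells, mean of duplicates, then screen-wide robust z-score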
Reading the numbers: viability robust z-score: higher = more viable cells than screen typical; caspase robust z-score: higher = more caspase 3/7 activity than screen typical
Rule for the call: 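a knock-down is a hit when classed RV1 or RV2 for lowered viability, or CA1 or CA2 for caspase activation; those lethal without drug were dropped; hits were retested singly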
In all, the deposit lists about 18,000 reagents; shown is an unselected part. Of all reagents, 450 (2.5%) were called active. 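Single biological run; no consistent viability z cut-off exists, so the class columns, not z-scores, define the calls.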 A number with no mark means an inactive call.

The first 2 entries, to show the layout:
SLC4A9 | viability hit class = no change; caspase hit class = no change; viability robust z-score = 1.12; caspase robust z-score = 0.53
PFKFB3 | viability hit class = no change; caspase hit class = no change; viability robust z-score = -0.78; caspase robust z-score = -0.45

The listing, from the first entry:
SLC4A9 | viability hit class = no change; caspase hit class = no change; viability robust z-score = 1.12; caspase robust z-score = 0.53
PFKFB3 | viability hit class = no change; caspase hit class = no change; viability robust z-score = -0.78; caspase robust z-score = -0.45
DGAT2L6 | viability hit class = no change; caspase hit class = no change; viability robust z-score = 0.08; caspase robust z-score = -1.06
TMEM160 | viability hit class = no change; caspase hit class = no change; viability robust z-score = 1.26; caspase robust z-score = -0.92
NPHP4 | viability hit class = no change; caspase hit class = no change; viability robust z-score = -0.78; caspase robust z-score = -1.27
CST8 | viability hit class = no change; caspase hit class = no change; viability robust z-score = 1.16; caspase robust z-score = -0.81
SLC16A2 | viability hit class = no change; caspase hit class = no change; viability robust z-score = 0.5; caspase robust z-score = -0.64
MRPL38 | viability hit class = no change; caspase hit class = no change; viability robust z-score = -0.1; caspase robust z-score = -1.09
ATP5MF | viability hit class = no change; caspase hit class = no change; viability robust z-score = -0.48; caspase robust z-score = -1.04
PGR | viability hit class = no change; caspase hit class = no change; viability robust z-score = -0.07; caspase robust z-score = -0.54
POLR2E | viability hit class = no change; caspase hit class = no change; viability robust z-score = -3.28; caspase robust z-score = 4.22
PPM1K | viability hit class = no change; caspase hit class = no change; viability robust z-score = -0.24; caspase robust z-score = -0.22
KCNG4 | viability hit class = no change; caspase hit class = no change; viability robust z-score = 0.04; caspase robust z-score = -0.08
OSTM1 | viability hit class = no change; caspase hit class = no change; viability robust z-score = 0.1; caspase robust z-score = 0.62
